Assay: DCFDA oxidation, cell free control
Conditions: 2 h
[1] = 6.25 µM, presence of 5 mM NAC (brackets)
[2] = 12.5 µM, presence of 5 mM NAC (brackets)
[3] = 25 µM, presence of 5 mM NAC (brackets)
[4] = 50 µM, presence of 5 mM NAC (brackets)

Row | Compound | Fold change in fluorescence (DCFDA) (6.25 µM) | Fold change in fluorescence (DCFDA) [1] | Fold change in fluorescence (DCFDA) (12.5 µM) | Fold change in fluorescence (DCFDA) [2] | Fold change in fluorescence (DCFDA) (25 µM) | Fold change in fluorescence (DCFDA) [3] | Fold change in fluorescence (DCFDA) (50 µM) | Fold change in fluorescence (DCFDA) [4]
1 | Oc1ccc(Cl)c2cccnc12 [Compound 5-Cl-Q-1] | 1.175± 0.32 | 2.112± 1.18 | 1.214± 0.43 | 1.858± 0.92 | 1.271± 0.88 | 2.200± 1.14 | 1.011± 0.50 | 1.730± 1.05
2 | 7-(2-fluorobenzyl-aminomethyl)-8-hydroxyquinoline hydrochloride [De-Cl-Q-4] | 1.684± 2.02 | 3.020± 0.79 | 1.437± 0.88 | 4.085± 1.53 | 1.648± 1.19 | 7.474± 4.04 | 2.248± 1.31 | 7.609± 3.35
3 | Oc1c(CNCc2ccccc2F)cc(Cl)c2cccnc12 [Compound Q-4, 5-chloro-7-((2-fluorobenzylamino)methyl)quinolin-8-ol] | 0.924± 0.45 | 5.061± 1.94 | 0.864± 0.34 | 7.004± 4.76 | 0.745± 0.29 | 6.141± 2.99 | 1.462± 1.42 | 4.679± 1.90
4 | Oc1c(CN2CCOCC2)cc(Cl)c2cccnc12 [Compound 5-Cl-Q-2] | 1.920± 1.42 | 2.823± 1.17 | 2.196± 1.53 | 4.603± 3.89 | 2.732± 2.28 | 3.304± 1.33 | 2.435± 1.51 | 3.799± 3.46
5 | Oc1c(CN2CCCCC2)cc(Cl)c2cccnc12 [Compound 5-Cl-Q-3] | 2.088± 1.94 | 3.961± 2.13 | 1.760± 0.97 | 4.868± 3.72 | 2.156± 1.85 | 5.140± 3.72 | 1.849± 1.53 | 4.642± 2.74
6 | Oc1c(CN2CCCCC2)ccc2cccnc12 [Compound Q-3, 7-(piperidin-1-ylmethyl)quinolin-8-ol] | 0.823± 0.17 | 1.297± 0.58 | 1.114± 0.53 | 1.516± 0.52 | 1.103± 0.45 | 1.683± 0.58 | 1.076± 0.38 | 1.868± 0.71
7 | Oc1c(CN2CCOCC2)ccc2cccnc12 [Compound Q-2, 7-(morpho-lino-methyl)quinolin-8-ol] | 1.266± 0.45 | 1.129± 0.42 | 1.297± 0.61 | 1.351± 0.67 | 1.308± 0.69 | 1.461± 0.44 | 2.350± 2.19 | 1.472± 0.53
8 | Oc1cccc2cccnc12 [Compound Q-1, 8-Hydroxyquinoline] | 1.098± 0.50 | 1.307± 0.23 | 0.891± 0.24 | 1.262± 0.26 | 0.917± 0.35 | 1.223± 0.39 | 1.094± 0.65 | 1.167± 0.51
